According to publication PMC5099880:
These are yes or no findings as the source states them, for the method shown. Binding seen in cells or lysates may run through a third protein. Some results given as binding are weak or reduced against the parent protein; the word gives no strength. Sequences can lack the tags named with a protein.

Protein sequences, listed by entry. Tags and fused reporters are not part of them.
UniProt Q9JMH9: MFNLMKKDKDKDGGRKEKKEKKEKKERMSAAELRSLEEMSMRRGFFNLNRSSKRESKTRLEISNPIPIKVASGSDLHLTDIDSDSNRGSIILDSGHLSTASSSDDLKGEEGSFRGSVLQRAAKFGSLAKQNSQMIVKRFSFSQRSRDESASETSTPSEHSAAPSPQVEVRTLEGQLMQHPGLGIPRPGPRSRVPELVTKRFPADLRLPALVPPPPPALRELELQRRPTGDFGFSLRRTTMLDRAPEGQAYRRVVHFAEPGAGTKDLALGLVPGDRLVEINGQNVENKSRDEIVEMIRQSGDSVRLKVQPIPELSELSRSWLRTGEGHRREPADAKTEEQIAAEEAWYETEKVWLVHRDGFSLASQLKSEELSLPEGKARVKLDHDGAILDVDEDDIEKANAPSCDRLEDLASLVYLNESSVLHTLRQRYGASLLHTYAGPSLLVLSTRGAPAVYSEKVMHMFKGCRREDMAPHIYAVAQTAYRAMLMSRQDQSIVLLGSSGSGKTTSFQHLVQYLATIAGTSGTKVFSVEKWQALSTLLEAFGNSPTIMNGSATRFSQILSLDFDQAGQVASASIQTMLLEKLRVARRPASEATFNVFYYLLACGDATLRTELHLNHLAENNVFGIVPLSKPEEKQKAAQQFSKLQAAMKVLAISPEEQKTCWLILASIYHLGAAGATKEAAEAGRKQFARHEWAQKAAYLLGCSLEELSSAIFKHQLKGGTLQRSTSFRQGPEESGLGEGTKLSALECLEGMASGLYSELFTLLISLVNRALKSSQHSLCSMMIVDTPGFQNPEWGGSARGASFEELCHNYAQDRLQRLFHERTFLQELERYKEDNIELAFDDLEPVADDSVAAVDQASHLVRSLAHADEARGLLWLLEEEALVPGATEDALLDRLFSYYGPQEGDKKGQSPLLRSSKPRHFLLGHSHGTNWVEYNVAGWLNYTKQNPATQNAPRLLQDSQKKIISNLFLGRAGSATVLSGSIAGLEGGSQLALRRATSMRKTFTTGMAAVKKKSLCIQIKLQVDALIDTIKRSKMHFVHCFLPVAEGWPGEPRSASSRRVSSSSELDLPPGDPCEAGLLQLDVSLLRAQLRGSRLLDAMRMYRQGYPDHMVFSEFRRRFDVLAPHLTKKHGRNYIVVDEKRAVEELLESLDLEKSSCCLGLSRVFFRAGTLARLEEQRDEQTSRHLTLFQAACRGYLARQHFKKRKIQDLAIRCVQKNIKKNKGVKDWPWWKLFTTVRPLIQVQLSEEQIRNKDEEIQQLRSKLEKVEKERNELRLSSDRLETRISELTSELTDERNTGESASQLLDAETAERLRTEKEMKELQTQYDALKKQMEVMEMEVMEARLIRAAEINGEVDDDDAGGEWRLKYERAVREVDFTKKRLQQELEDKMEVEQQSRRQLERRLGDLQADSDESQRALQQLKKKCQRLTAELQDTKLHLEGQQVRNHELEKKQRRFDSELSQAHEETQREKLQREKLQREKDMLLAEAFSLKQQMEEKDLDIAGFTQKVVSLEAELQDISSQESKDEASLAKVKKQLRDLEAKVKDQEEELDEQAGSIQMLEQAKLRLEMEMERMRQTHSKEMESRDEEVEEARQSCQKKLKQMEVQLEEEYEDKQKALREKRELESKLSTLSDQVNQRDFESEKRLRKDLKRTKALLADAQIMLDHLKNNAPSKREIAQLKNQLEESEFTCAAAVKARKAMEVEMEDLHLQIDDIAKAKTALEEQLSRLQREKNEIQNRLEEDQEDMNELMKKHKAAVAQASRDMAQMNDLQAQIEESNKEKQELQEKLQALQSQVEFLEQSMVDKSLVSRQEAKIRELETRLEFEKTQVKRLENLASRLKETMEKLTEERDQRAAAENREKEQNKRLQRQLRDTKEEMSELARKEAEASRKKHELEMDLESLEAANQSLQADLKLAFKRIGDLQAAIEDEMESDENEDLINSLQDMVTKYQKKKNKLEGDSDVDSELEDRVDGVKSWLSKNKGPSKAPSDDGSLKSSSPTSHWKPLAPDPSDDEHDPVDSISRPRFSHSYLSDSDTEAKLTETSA

Molecular target: N-terminal myc-tagged full-length mouse MYO18A (mouse) (UniProt Q9JMH9)
Assay: co-IP; HEK293T cells co-transfected, lysed in 150 mM NaCl, 50 mM Tris-HCl pH 7.5, 1% Triton X-100; anti-myc antibody agarose beads, 2 hours at 4 °C, five washes with 500 mM NaCl lysis buffer; blots with anti-GFP and anti-myc

binding: binds
B1: EGFP-tagged mouse Golgin45 (protein, UniProt Q8R2X8 1-403)
chain: MEKMTTLKSSENKGILTSTPIRGAGDGMETEEPPKSVEVTHGVQPINQHVLPSPRKKVSSDSPGVLQLGKILNERTVEVEAVRIFVPKAAITHDIPTKNTKVKSLGHHREELHNQAEVVTDPRKELSEVKKVLEKLKNSERRLLQDKEGLSNQLRVQTEINRELKKLLVASVGDDPQYHFERLAREKNQLILENEALGRNTAQLSEQLERMSIQCDVWRSKFLASRVMADELTNFRVVLQRQNRDAQSAIQDLLSEREQFRQEMTSTQKFLEELLVSLQWGREQTYSPNTQPHSTADLALTNHGLAQAIHAHLLGNVGISHQKKIPTTVEFCSTPAEKMAEKVLRILDPVACTESSPDNQFAESSPTTLLTTKKNIGRFHPYTRYENITFNCCNHCQGELIAL
